These are yes or no findings as the source states them, for the method shown. Binding seen in cells or lysates may run through a third protein.
Target: FK506 binding protein 10 (FKBP10), endogenous (human (endogenous in T24 and UMUC3)) (UniProt Q96AY3)
Assay: co-IP; endogenous proteins; IP with anti-FKBP10 antibody from NP-40 cell lysate, western blot

By UniProt entry, the sequences of proteins in these tests, tags left out. Where a name states a change or a piece, a line headed by the entry shows the natural chain unless it says otherwise. Chains listed by the source or under a name are the forms on record and can include a tag or linker. Residues count along the entry.
UniProt Q96AY3, residues 27-582: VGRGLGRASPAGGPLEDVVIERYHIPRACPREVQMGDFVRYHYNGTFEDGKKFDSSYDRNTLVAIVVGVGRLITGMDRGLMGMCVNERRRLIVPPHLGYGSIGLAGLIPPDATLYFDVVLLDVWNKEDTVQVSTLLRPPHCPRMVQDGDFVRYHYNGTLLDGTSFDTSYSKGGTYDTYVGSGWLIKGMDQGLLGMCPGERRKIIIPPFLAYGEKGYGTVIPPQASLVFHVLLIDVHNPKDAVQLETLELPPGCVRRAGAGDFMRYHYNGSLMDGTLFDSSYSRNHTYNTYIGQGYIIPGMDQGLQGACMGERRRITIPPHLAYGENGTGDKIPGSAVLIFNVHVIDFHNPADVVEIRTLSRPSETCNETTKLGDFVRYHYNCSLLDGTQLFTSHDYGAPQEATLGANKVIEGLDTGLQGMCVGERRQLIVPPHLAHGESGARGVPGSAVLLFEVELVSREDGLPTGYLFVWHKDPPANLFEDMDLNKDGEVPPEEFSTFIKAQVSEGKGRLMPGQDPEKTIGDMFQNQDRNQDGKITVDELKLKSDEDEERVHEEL
lamin C (P02545-2, form named): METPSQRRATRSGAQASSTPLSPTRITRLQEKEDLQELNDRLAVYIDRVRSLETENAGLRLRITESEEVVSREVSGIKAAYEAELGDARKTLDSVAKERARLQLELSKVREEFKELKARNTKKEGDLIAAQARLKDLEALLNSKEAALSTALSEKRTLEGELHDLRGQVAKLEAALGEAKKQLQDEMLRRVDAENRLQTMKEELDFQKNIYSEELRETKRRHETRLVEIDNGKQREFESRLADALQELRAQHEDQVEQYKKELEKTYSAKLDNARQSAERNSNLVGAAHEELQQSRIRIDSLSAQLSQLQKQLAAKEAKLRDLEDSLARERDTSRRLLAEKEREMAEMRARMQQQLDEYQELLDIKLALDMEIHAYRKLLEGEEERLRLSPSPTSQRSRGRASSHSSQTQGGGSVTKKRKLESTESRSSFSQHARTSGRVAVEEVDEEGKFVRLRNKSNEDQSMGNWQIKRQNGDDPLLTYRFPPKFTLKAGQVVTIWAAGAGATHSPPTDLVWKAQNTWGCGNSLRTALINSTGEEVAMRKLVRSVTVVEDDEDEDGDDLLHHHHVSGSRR

With lamin C (from UniProt P02545-2 1-572) as the substance, how does the binding read?
The binding was “no binding”.
